Measurements reported in publication PMC10786037, “Autoinhibition in the Signal Transducer CIN85 Modulates B Cell Activation” (Journal of the American Chemical Society, 2023).
Results are given in words; binding and its absence hold for the method and conditions named. Some entries that bind do so weakly or less than the wild type.

Experiments:
[1] = target: CIN85_(1-333) (human) (UniProt Q96B97); assay: NMR relaxation (TRACT rotational correlation times) and translational diffusion (N-TRO-STE) against protein concentration; protein concentration 0.05 to 1.16 mM; 800 MHz, 298 K; 15N-labelled, perdeuterated protein; both purified
[2] = target: CIN85_(1-333)-R229A (human) (UniProt Q96B97); assay: as above
[3] = target: T1, CIN85 SH3C domain (human, UniProt Q96B97-1 262-333); assay: NMR titration; 15N-labelled isolated SH3 domain titrated with synthetic 14-residue peptide; chemical shift perturbations; KD fitted, error by bootstrap resampling; both purified
T1 construct: the NMR structure PDB 2k9g of SH3C was used to map the shifts; 15N-labelled for NMR; The limits of PDB 2k9g may differ from those of the construct; also called C-terminal SH3 domain
T1 sequence: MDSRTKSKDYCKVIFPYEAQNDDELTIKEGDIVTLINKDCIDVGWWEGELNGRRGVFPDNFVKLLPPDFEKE

CIN85_(1-333) (from UniProt Q96B97-1 1-333) (domain or fragment)
binding [1]: binds weakly

CIN85_(1-333)-R229A (from UniProt Q96B97-1 1-333) (domain or fragment)
binding [2]: binds weakly

B1: CIN85-PRM1 peptide R227A/R229A (residues 219-232) (peptide)
peptide: FKDKPIKLAPASIE
notes: CIN85, human, residues 219-232 with R227A and R229A; also called R227A/R229A mutant peptide; source: synthetic peptide
binding [3]: no binding (tested: ≫2.45 mM)
